Data on one substance can be found in paper PMC8190130.

Amino acid sequences for entries named in this document (tags omitted).
UniProt Q92783: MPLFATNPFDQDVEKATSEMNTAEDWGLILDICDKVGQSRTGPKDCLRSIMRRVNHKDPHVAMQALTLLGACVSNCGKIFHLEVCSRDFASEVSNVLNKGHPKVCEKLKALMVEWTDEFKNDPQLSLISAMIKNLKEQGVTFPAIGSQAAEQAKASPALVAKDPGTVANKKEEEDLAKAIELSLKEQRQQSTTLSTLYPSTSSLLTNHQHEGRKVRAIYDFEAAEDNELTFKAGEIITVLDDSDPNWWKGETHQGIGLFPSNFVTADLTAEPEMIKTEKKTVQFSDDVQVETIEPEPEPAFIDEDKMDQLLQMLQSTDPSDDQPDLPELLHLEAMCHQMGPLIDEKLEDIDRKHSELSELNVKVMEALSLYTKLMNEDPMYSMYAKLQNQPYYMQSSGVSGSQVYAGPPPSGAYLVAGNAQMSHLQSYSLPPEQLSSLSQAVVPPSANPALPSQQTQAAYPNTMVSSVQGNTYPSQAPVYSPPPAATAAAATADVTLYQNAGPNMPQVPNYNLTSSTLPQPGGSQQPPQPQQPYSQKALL

The experiment has as its target T1, STAMBP (human) (UniProt O95630).
T1 sequence: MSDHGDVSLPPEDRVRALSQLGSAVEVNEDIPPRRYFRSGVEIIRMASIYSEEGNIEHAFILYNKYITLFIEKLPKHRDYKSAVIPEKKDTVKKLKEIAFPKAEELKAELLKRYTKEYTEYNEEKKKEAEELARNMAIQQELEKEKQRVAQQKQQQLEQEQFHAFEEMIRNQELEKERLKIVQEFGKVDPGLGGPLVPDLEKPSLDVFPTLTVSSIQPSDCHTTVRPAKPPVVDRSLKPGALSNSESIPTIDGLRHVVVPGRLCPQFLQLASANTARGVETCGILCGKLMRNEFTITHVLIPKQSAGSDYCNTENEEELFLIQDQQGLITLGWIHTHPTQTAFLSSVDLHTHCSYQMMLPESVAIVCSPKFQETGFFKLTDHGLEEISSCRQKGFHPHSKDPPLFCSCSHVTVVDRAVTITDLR
The experiment is described as follows: co-IP; STAMBP complex from H1299 cells probed for STAM and EGFR; method and conditions only in Supplementary figure 6 (not shown).

These are yes or no findings as the source states them, for the method shown. Binding seen in cells or lysates may run through a third protein. Some binding calls cover weakened binding; strength is not graded here. Sequences can lack the tags named with a protein.

Turning to STAM (from UniProt Q92783 1-540), the binding entry is on record as “binds”.
